According to patent US20250382359A1:
Positions count from the first letter of the chain named. No constants are given. Whether binding was seen depends on the method and setting. Some results given as binding are weak or reduced against the parent protein; the word gives no strength. One block for each binder: values may come before it.

Chains of the proteins cited; added tags and fusions are not shown. Residues count along the entry.
UniProt Q9Z0J7, residues 189-303: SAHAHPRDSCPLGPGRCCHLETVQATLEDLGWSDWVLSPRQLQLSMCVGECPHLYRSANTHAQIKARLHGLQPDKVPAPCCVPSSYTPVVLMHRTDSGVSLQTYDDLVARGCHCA
UniProt P39905, residues 78-211: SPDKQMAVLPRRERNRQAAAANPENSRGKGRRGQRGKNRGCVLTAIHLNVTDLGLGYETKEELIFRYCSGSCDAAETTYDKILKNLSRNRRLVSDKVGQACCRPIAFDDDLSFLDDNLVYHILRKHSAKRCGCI

Assays:
Mouse GDF15 Fc (mouse) = Mouse GDF15 Fc (mouse) (UniProt Q9Z0J7); assay: BLI Octet; antigen on sensor, 100 nM Fab (monovalent)
GDNF = GDNF (UniProt P39905); assay: BLI Octet; IgG on sensor, 100 nM antigen (avid)

B1: GDF15 antibody agent Clone J, Fab (Fab, V domains shown)
VH: QVQLVQSGAEVKKPGASVKVSCKASGYTFTSYGINWVRQAPGQGLEWMGWIDAYSGSTNYAQKLQGRVTMTTDTSTSTAYMELRSLRSDDTAVYYCARGPGQYADVDVWGQGTMVTVSS
VL: DIQMTQSPSSVSASVGDRVTITCRASQGISSWLAWYQQKPGKAPKLLIYAASSLQSGVPSRFSGSGSGTDFTLTISSLQPEDFATYYCQQANSFPITFGGGTKVEIK
binding (Mouse GDF15 Fc (mouse)): binds

B2: GDF15 antibody agent Clone J, IgG (antibody, V domains shown)
VH: B1 VH
VL: DIQMTQSPSSVSASVGDRVTITCRASQGISSWLAWYQQKPGKAPKLLIYAASSLQSGVPSRFSGSGSGTDFTLTISSLQPEDFATYYCQQANSFPITFGGGTKVEIKR
binding (GDNF): binds

Other lines, results leading:

binding (Mouse GDF15 Fc (mouse)): binds
B3: GDF15 antibody agent Clone P, Fab (Fab, V domains shown)
VH: QVQLVQSGAEVKKPGATVKVSCKASGYTFDSYGIHWVRQAPGQGLEWMGWITAYSGDTVYAQKLQGRVTMTTDTSTSTAYMELRSLRSDDTAVYYCARESGQTSSALGPWGQGTLVTVSS
VL: B1 VL with S31R, A91G, N92A, I96L

binding (GDNF): binds
B4: GDF15 antibody agent Clone P, IgG (antibody, V domains shown)
VH: B3 VH
VL: B2 VL with S31R, A91G, N92A, I96L
